Experimental data: PubChem BioAssay AID1159600 (NIAID, 2016)
In all, the deposit lists 756 reagents; this is a random part of them. In the full data, 134 (18%) are marked active. 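Active includes both reduced and increased reporter signal, though most active siRNAs reduce it; R848 dose unknown.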 A number with no mark means an inactive call. The numbers tell different reagents against one gene apart. No sequences are given here. The record does not give: the amount of reagent.

Purpose: 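Effect of silencing core TLR signalling genes on R848-induced TNF reporter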 (primary screen)
Cell system: human THP-1 TNF reporter clone B5, made macrophage-like with PMA
Knock-down reagent: single siRNA against human genes
Timing: 4 h ligand stimulation, assayed 48 to 72 h after siRNA transfection
Conditions: R848 (TLR7/8 agonist) for 4 hours before lysis; dose not given
Read-out: 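TNF promoter firefly to renilla luciferase ratio after 4 h R848, scaled per plate by median and MAD, robust z-score against negative controls, mean of replicates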
Direction: TNF reporter z-score: higher = stronger TNF promoter reporter signal after R848
Call rule: 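Active where mean z-score is about 1.5 or more from zero in either direction; depositor grades use cut-offs of 1, 1.5, 2 and 2.5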
Calls: active = strong change in TNF reporter (up or down); inactive = little change

With knock-down of TIRAP (TIR domain containing adaptor protein) #1 the results were TNF reporter z-score -0.586.
Knock-down of TIRAP (TIR domain containing adaptor protein) #2 resulted in: TNF reporter z-score 0.46.
TIRAP (TIR domain containing adaptor protein) #3 showed TNF reporter z-score -0.76.
After knock-down of TIRAP (TIR domain containing adaptor protein) #4, the screen gave TNF reporter z-score -0.296.
TIRAP (TIR domain containing adaptor protein) #5 showed TNF reporter z-score 0.178.
TIRAP (TIR domain containing adaptor protein) #6 showed TNF reporter z-score -1.06.
With knock-down of RAC1 (Rac family small GTPase 1) #1 the results were TNF reporter z-score -0.235.
After knock-down of RAC1 (Rac family small GTPase 1) #2 the results were TNF reporter z-score -1.13.
After knock-down of RAC1 (Rac family small GTPase 1) #3 the results were TNF reporter z-score 0.547.
Depletion of RAC1 (Rac family small GTPase 1) #4 gave: TNF reporter z-score -0.72.
With knock-down of RAC1 (Rac family small GTPase 1) #5 the results were TNF reporter z-score -0.31.
Silencing of RAC1 (Rac family small GTPase 1) #6 came out at: TNF reporter z-score -1.55 (active).
Depletion of PELI1 (pellino E3 ubiquitin protein ligase 1) #1 came out at: TNF reporter z-score -0.779.
Against PELI1 (pellino E3 ubiquitin protein ligase 1) #2 the deposit lists TNF reporter z-score -0.734.
PELI1 (pellino E3 ubiquitin protein ligase 1) #3 showed TNF reporter z-score 0.891.
PELI1 (pellino E3 ubiquitin protein ligase 1) #4 showed TNF reporter z-score -1.89 (active).
Silencing of PELI1 (pellino E3 ubiquitin protein ligase 1) #5 came out at: TNF reporter z-score -0.413.
With knock-down of PELI1 (pellino E3 ubiquitin protein ligase 1) #6, the screen gave TNF reporter z-score -0.0882.
With knock-down of TAB3 (TGF-beta activated kinase 1 (MAP3K7) binding protein 3) #1 the results were TNF reporter z-score -0.616.
TAB3 (TGF-beta activated kinase 1 (MAP3K7) binding protein 3) #2 gave TNF reporter z-score -0.455.
Knock-down of TAB3 (TGF-beta activated kinase 1 (MAP3K7) binding protein 3) #3 resulted in: TNF reporter z-score -0.76.
For TAB3 (TGF-beta activated kinase 1 (MAP3K7) binding protein 3) #4, the values are TNF reporter z-score 0.54.
Knock-down of TAB3 (TGF-beta activated kinase 1 (MAP3K7) binding protein 3) #5 gave: TNF reporter z-score 0.889.
Depletion of TAB3 (TGF-beta activated kinase 1 (MAP3K7) binding protein 3) #6 resulted in: TNF reporter z-score -0.276.
TNFAIP3 (TNF alpha induced protein 3) #1 showed TNF reporter z-score 0.829.
TNFAIP3 (TNF alpha induced protein 3) #2 showed TNF reporter z-score 0.86.
After knock-down of TNFAIP3 (TNF alpha induced protein 3) #3, the screen gave TNF reporter z-score 1.79 (active).
Knock-down of TNFAIP3 (TNF alpha induced protein 3) #4 gave: TNF reporter z-score 0.527.
Silencing of TNFAIP3 (TNF alpha induced protein 3) #5 resulted in: TNF reporter z-score 1.03.
Silencing of TNFAIP3 (TNF alpha induced protein 3) #6 came out at: TNF reporter z-score -0.972.
FADD (Fas associated via death domain) #1 scored TNF reporter z-score 0.168.
With knock-down of FADD (Fas associated via death domain) #2 the results were TNF reporter z-score -1.47.
Depletion of FADD (Fas associated via death domain) #3 came out at: TNF reporter z-score -0.145.
After knock-down of FADD (Fas associated via death domain) #4 the results were TNF reporter z-score -1.13.
Knock-down of FADD (Fas associated via death domain) #5 gave: TNF reporter z-score -0.463.
Against FADD (Fas associated via death domain) #6, the entry reads TNF reporter z-score -2.18 (active).
ELK4 (ETS transcription factor ELK4) #1 scored TNF reporter z-score -0.216.
After knock-down of ELK4 (ETS transcription factor ELK4) #2 the results were TNF reporter z-score -1.65 (active).
For ELK4 (ETS transcription factor ELK4) #3, the entry reads TNF reporter z-score -0.856.
After knock-down of ELK4 (ETS transcription factor ELK4) #4 the results were TNF reporter z-score -0.103.
ELK4 (ETS transcription factor ELK4) #5 showed TNF reporter z-score -0.927.
ELK4 (ETS transcription factor ELK4) #6 showed TNF reporter z-score 0.154.
MAP3K14 (mitogen-activated protein kinase kinase kinase 14) #1 showed TNF reporter z-score 0.184.
MAP3K14 (mitogen-activated protein kinase kinase kinase 14) #2 scored TNF reporter z-score 0.962.
MAP3K14 (mitogen-activated protein kinase kinase kinase 14) #3 scored TNF reporter z-score -1.15.
Knock-down of MAP3K14 (mitogen-activated protein kinase kinase kinase 14) #4 gave: TNF reporter z-score 0.836.
For MAP3K14 (mitogen-activated protein kinase kinase kinase 14) #5, the values are TNF reporter z-score -0.633.
For MAP3K14 (mitogen-activated protein kinase kinase kinase 14) #6 the deposit lists TNF reporter z-score -1.42.
Against NFKBIB (NFKB inhibitor beta) #1 the deposit lists TNF reporter z-score -1.56 (active).
After knock-down of NFKBIB (NFKB inhibitor beta) #2, the screen gave TNF reporter z-score -0.529.
After knock-down of NFKBIB (NFKB inhibitor beta) #3, the record shows TNF reporter z-score 0.022.
NFKBIB (NFKB inhibitor beta) #4 scored TNF reporter z-score -1.56 (active).
Knock-down of NFKBIB (NFKB inhibitor beta) #5 resulted in: TNF reporter z-score 1.1.
After knock-down of NFKBIB (NFKB inhibitor beta) #6, the screen gave TNF reporter z-score -0.643.
ITGAM (integrin subunit alpha M) #1 gave TNF reporter z-score 0.804.
For ITGAM (integrin subunit alpha M) #2 the deposit lists TNF reporter z-score -1.27.
ITGAM (integrin subunit alpha M) #3 gave TNF reporter z-score -0.0326.
After knock-down of ITGAM (integrin subunit alpha M) #4, the screen gave TNF reporter z-score -0.585.
ITGAM (integrin subunit alpha M) #5 showed TNF reporter z-score -0.288.
ITGAM (integrin subunit alpha M) #6 scored TNF reporter z-score -0.437.
